Data on 17 compounds can be found in PubChem BioAssay AID2685 (National Center for Advancing Translational Sciences (NCATS), 2010).

Some of the results follow. The main result of the screen is listed elsewhere. These columns were measured beside it and carry no call. The list favours compounds with an active or inconclusive main result. Words in brackets tell the shape of the fitted curve; partial curves, single points and poor fits give uncertain potencies.

A short description of this assay: qHTS Assay for Lipid Storage Modulators in Drosophila S3 Cells.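 For cell number change: cells counted by Cell Tracker Red CMTPX staining in the red channel.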 Particulars: BODIPY lipid droplet fluorescence, 18-24 h; for cell number change: measured here: cell count max response, cells fed with added oleic acid. An outline of the steps: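 Laser-scanning cytometry quantifies lipid droplet accumulation (500–530 nm total intensity; droplet/cell object ratio) in oleic acid-fed (400 uM added) Drosophila S3 cells treated with a concentration series. 20 uM Triacsin C defined 100% inhibition.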

[1] abbreviates: measured here: cell number channel AC50, cells fed with added oleic acid.
[2] abbreviates: measured here: lipid fluorescence (Fed channel) AC50, cells fed with added oleic acid.

Regarding `CC(NCC(=O)Nc1cc(Cl)cc(Cl)c1)c1ccccc1` (stereo not drawn), the cell number change was -62.9%. The AC50 under setting [1] was 25.9 µM [falling, single point]. The half-maximal activity concentration (AC50) under setting [2] is 32.6 µM [falling, partial curve].

As to `Cc1ccc(N=Cc2c(O)c3ccccc3n(C)c2=O)cc1`, the cell number change is -52.4%. In addition, the AC50 under setting [1] is 29.1 µM [falling, single point]. For the same compound, the AC50 under setting [2] was 32.6 µM [falling, single point].

With `CC1(C)C2CCC1(C)C(OCC[N+](C)(C)CC(=O)OC1CCCCC1)C2` (stereo not drawn), the cell number change is -45.4%. For the same compound, under setting [1], the AC50 was 18.4 µM [falling, single point]. For the same compound, under setting [2], the concentration at half-maximal activity (AC50) was 18.4 µM [falling, single point].

`CCOc1ccc(S(=O)(=O)n2nc(C)cc2C)cc1`: the cell number change amounted to 15.2%. Moreover, under setting [2], the concentration at half-maximal activity (AC50) is 6.51 µM [falling, single point].

In the case of `CC1(C)CC(NC(=O)C(C)(C)Oc2ccc(Cl)cc2)CC(C)(C)N1`, the cell number change is 11.1%. Also, the AC50 under setting [2] was 0.0082 µM [falling, full curve, poor fit].

On to `COc1ccccc1CNC(=O)CCCc1ccccc1`, for which the AC50 under setting [1] is 4.11 µM [rising, partial curve, poor fit].

In the case of `CCc1ccc(NC(=O)CSc2nnc(-c3cccs3)n2CC)cc1`, the AC50 under setting [1] was 3.66 µM [rising, partial curve].

Consider `CN(C)c1cccc(C(=O)OC(C(=O)Nc2ccc(Cl)cc2C(F)(F)F)c2ccccc2)c1` (stereo not drawn), for which the cell number change is 19.6%. The AC50 under setting [2] was 3.66 µM [rising, single point].

As for `C=C(C)C1CC=C(C)/C(=N/NC(=O)CCC(=O)Nc2ccccc2Cl)C1` (stereo not drawn), the cell number change was 16.7%.

With `CCOC(=O)Cn1cc(/C=N/NC(=O)CC#N)c2ccccc21`, the cell number change was determined as 15.5%. For the same compound, the AC50 under setting [2] was 1.84 µM [rising, partial curve].

Regarding `COc1ccccc1-n1c(C)cc(C=O)c1C`, the cell number change is -36.4%. Besides, under setting [1], the AC50 is 0.731 µM [falling, full curve].

With `COc1ccc([C@H]2CC(=O)C=C(c3ccc4c(c3)OCO4)C2)cc1OC`, the cell number change is -8.96%. Also, the concentration at half-maximal activity (AC50) under setting [2] is 6.51 µM [falling, single point].

Take `CC(C)Sc1ccccc1C(=O)Nc1ccc2c(c1)n(C)c(=O)n2C`: the cell number change came out at 2.46%.

Regarding `O=[N+]([O-])c1c(NCCO)cc(N2CCCCCC2)c2nonc12`, the cell number change was -8.45%. Under setting [2], the AC50 is 6.51 µM [rising, single point].

On to `CCC(=O)c1cn(CCOc2ccccc2OC)c2ccccc12`, for which the cell number change was -25.5%. For the same compound, the AC50 under setting [2] was 0.651 µM [rising, single point].

With `COc1ccccc1NC(=S)N1CCc2cc(OC)c(OC)cc2C1`, the cell number change came to 53.1%. Besides, under setting [1], the half-maximal activity concentration (AC50) was 7.31 µM [rising, partial curve]. In addition, the AC50 under setting [2] is 5.8 µM [rising, full curve].

With `Cc1ccc(-n2c(SCC(=O)NCc3ccco3)nc3c(sc4ccccc43)c2=O)cc1`, the AC50 under setting [1] was 0.651 µM [rising, full curve, poor fit].

Broadly, the AC50 is the midpoint of the concentration-response curve, whichever way the signal moves.
